# Reference: PubChem BioAssay AID504467 (National Center for Advancing Translational Sciences (NCATS), 2011)
# Among all 330,000 compounds or so, about 7,700 (2.3%) were called active. The inconclusive results got no clear call from the source; some entries with a clear call stand among them for comparison. Calls follow the shape of the dose curve; as a rule, active = well fitted inhibition curve with a large enough effect; inconclusive = small, poorly fitted or top-dose-only effect, or effect the other way; inactive = flat fitted curve, though single readings scatter. Where the call is inconclusive, the potency comes from a doubtful curve fit.
# Assay: qHTS screen for small molecules that inhibit ELG1-dependent DNA repair in human embryonic kidney (HEK293T) cells expressing luciferase-tagged ELG1; also: nearly all actives have a fitted effect of over 55% in size
# Conditions: HEK293T ELG1-luciferase reporter, luminescence, 16 h, DNA damage induced by 5-fluorouridine; activity change, negative = inhibition: at 46.1 µM (top of the series)
# Procedure, shortened: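 In this reporter screen, reduction of luminescence relative to DMSO vehicle indicated activity. Compounds and 5-fluorouridine were added together to 2,000 cells per well, incubated for 16 hr at 37 °C, then developed with ONE-Glo.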
# % is scaled to controls: 0 for no effect and ±100 for the full control effect; potency is read from the fitted curve at half-maximal effect.
SMILES,Potency,"activity change, negative = inhibition"
CC(=O)c1ccc(OCC(=O)N2CCCC(N3CCN(c4ccccc4C)CC3)C2)cc1 (stereo not given),"inconclusive: 18.3 µM [inhibitor, single point]",
O=C(Nc1ccccc1)Oc1ccccc1,,inactive: 20.8%
COc1ccc(CN2CCCC(C(=O)c3ccc(Cl)cc3)C2)c(OC)c1 (stereo not given),,inactive: -1.9%
O=C(CN1CCN(S(=O)(=O)c2ccc3ccccc3c2)CC1)NC(=O)NC1CCCCC1,"inconclusive: 20.6 µM [inhibitor, partial curve]",
O=[N+]([O-])c1ccccc1CNCCc1c[nH]c2ccccc12,,inactive: 9.08%
CCN(CC)S(=O)(=O)c1ccc(C(=O)O)cc1,"inconclusive: 29.1 µM [activator, partial curve, poor fit]",
CCCCCn1c(=O)c(C(=O)Nc2ccccc2)c(O)c2ccccc21,,inactive: 18%
CC(C)c1ccccc1NC1=NCCCS1,,inactive: -10.4%
CN1C(=O)/C(=C/c2cccn2-c2ccc3ccccc3c2)C(=O)NC1=S,"inconclusive: 29.1 µM [inhibitor, single point]",
Clc1ccc(C(Cn2ccnc2)OCc2csc3c(Cl)cccc23)c(Cl)c1 (stereo not given),"inconclusive: 7.94 µM [inhibitor, partial curve, poor fit]",
Cc1ccc(/C=C2/Sc3ccc(C(=O)N4CCC5(CC4)OCCO5)cc3NC2=O)cc1,,inactive: 0.214%
Nc1ccccc1C(=O)OCCOc1ccccc1,"inconclusive: 1.64 µM [activator, full curve]",
CCC(=O)Nc1ccc(-c2ccc(N3CCN(C)CC3)nn2)cc1,"inconclusive: 20.6 µM [activator, single point]",
COC12CCC3(CC1C(C)(O)C(C)(C)C)[C@H]1Cc4ccc(O)c5c4[C@@]3(CCN1CC1CC1)C2O5 (stereo not given in full),,inactive: 0.949%
CCC(CC)NCc1c[nH]c2ccccc12,,inactive: -17.6%
COC(=O)Cn1cc(C=C2C(=O)N(C)C(=O)N(C)C2=O)c2ccccc21,,inactive: 8.31%
CC/C=C/CC(=O)N[C@@H](c1ccccc1)[C@@H](O)C(=O)O[C@H]1C[C@@]2(O)[C@@H](OC(=O)c3ccccc3)C3[C@](C)(C(=O)[C@H](OC(C)=O)C(=C1C)C2(C)C)[C@@H](O)C[C@H]1OC[C@@]31OC(C)=O (stereo not given in full),"inconclusive: 0.231 µM [inhibitor, single point]",
CC(C)c1ccc(C(O)P(=O)(OCc2ccccc2)c2ccc(N(C)C)cc2)cc1 (stereo not given),"inconclusive: 1.83 µM [inhibitor, partial curve, poor fit]",
O=C1NC(=O)N(Cc2ccco2)C(=O)/C1=C/C=C/c1ccco1,"inconclusive: 8.2 µM [inhibitor, single point]",
COC(=O)C1=C(c2ccc(OC)c(OC)c2)C[C@@H]2CC[C@H]1N2C(=O)N1CCOCC1,"inconclusive: 16.4 µM [activator, partial curve, poor fit]",

# Taken from the results shown (two entries):
SMILES,Potency,"activity change, negative = inhibition"
COc1ccc(CN2CCCC(C(=O)c3ccc(Cl)cc3)C2)c(OC)c1 (stereo not given),,inactive: -1.9%
O=C(CN1CCN(S(=O)(=O)c2ccc3ccccc3c2)CC1)NC(=O)NC1CCCCC1,"inconclusive: 20.6 µM [inhibitor, partial curve]",

# Continued.

SMILES,Potency,"activity change, negative = inhibition"
CN1CCN(C(=S)c2ccc([N+](=O)[O-])cc2)CC1,"inconclusive: 20.6 µM [activator, partial curve, poor fit]",
COc1cc(OC)c(OC)cc1/C=C1\C(=O)NC(=O)N(Cc2ccccc2)C1=O,,inactive: -11.7%
CC(C)c1ccc(-n2c(O)c(/C=N/NC(=O)c3ccncc3)c(=O)[nH]c2=O)cc1,"inconclusive: 18.4 µM [activator, single point]",
COc1cc(OC)c(OC)cc1CN1CCN(C(=O)COc2ccc3ccccc3c2)CC1,"inconclusive: 16.4 µM [inhibitor, partial curve, poor fit]",
CN1CC=C(/C=C/c2ccc(-c3ccccc3)cc2)CC1,"inconclusive: 18.3 µM [activator, partial curve]",
COc1ccc(C(=O)CCNc2ccc(F)cc2)cc1,"inconclusive: 10.3 µM [activator, partial curve]",
C=CCn1c(O)c(C(CC)=Nc2cc(OC)ccc2OC)c(=O)[nH]c1=O,"inconclusive: 16.4 µM [activator, partial curve]",
COC(=O)C1=C(c2ccc(F)cc2OCc2ccccc2)C[C@@H]2CC[C@H]1N2C(=O)NCc1cccc(C(F)(F)F)c1,"inconclusive: 11.6 µM [inhibitor, partial curve, poor fit]",
CN(C)Cc1ccccc1OC(=O)N(C)C,,inactive: 5.6%
CC(C)c1ccc(N2C(=O)NC(=O)/C(=C\c3cnc(-c4ccccc4)nc3)C2=O)cc1,"inconclusive: 18.4 µM [activator, partial curve, poor fit]",
COc1ccc(C=C2C(=O)N(C)C(=O)N(C)C2=O)cc1CSc1ccccn1,"inconclusive: 0.58 µM [inhibitor, single point]",
OCC(CBr)(CBr)CBr,"inconclusive: 25.9 µM [activator, single point]",
c1ccc(-c2ccc(-c3n(-c4ccccn4)c4ccccc4[n+]3-c3ccccn3)cc2)cc1,"inconclusive: 20.6 µM [inhibitor, partial curve]",
C[C@H]1O[C@@H](OC2CC[C@]3(C=O)[C@H]4CC[C@]5(C)[C@@H](C6=CC(=O)OC6)CC[C@]5(O)[C@@H]4CC[C@]3(O)C2)CC2OC(C)(C)OC21 (stereo not given in full),"inconclusive: 0.291 µM [inhibitor, full curve, poor fit]",
O=C(CSc1nnc(NC(=O)c2cccc(F)c2)s1)NCc1ccco1,"inconclusive: 29.1 µM [activator, single point]",
C=CCn1c(O)c(C(C)=NCc2cc(OC)cc(OC)c2)c(=O)[nH]c1=O,"inconclusive: 35.5 µM [inhibitor, single point]",
COC(=O)C1=C(c2ccc(OC)c(OC)c2)C[C@@H]2CC[C@H]1N2C(=O)N1CCc2cc(OC)c(OC)cc2C1,"inconclusive: 29.1 µM [inhibitor, single point]",
S=C1NC2(CCCCC2)NC12CCCCC2,,inactive: 19.7%
OC(c1ccccc1)(c1ccccc1)C1CN2CCC1CC2 (stereo not given),"inconclusive: 18.3 µM [activator, partial curve, poor fit]",
O=C(c1ccccc1)c1cn(CC(=O)N2CCCc3ccccc32)c2ccccc12,"inconclusive: 29.1 µM [inhibitor, single point]",
